# From the supplement of paper PMC3334620
# Over roughly 33,000 sequences, “E-score (-0.5 to 0.5)” has its median near -0.0014; the highest 2% begin near 0.25. Some of the results follow.
# Biological target: T1, Cad1 (UniProt P24813)
# T1 sequence: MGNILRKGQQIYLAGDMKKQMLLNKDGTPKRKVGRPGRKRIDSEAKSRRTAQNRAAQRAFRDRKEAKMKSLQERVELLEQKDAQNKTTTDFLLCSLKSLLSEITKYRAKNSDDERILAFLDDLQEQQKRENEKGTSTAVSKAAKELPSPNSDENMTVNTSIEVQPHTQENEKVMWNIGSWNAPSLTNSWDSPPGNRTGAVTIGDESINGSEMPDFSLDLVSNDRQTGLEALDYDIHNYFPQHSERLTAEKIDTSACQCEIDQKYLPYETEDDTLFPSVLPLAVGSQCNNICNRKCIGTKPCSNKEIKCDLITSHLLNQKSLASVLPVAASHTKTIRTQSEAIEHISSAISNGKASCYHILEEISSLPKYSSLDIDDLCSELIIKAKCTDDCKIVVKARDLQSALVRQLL
# Test: PBM E-score (8-mer binding enrichment) (E-score (-0.5 to 0.5)); higher = stronger / more preferred TF binding
# Details: protein concentration: 100 nM; construct: GST-full length
# In short: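 For each ungapped eight-base word taken together with its reverse complement, the Universal PBM Analysis Suite assigned an E-score. Binding data came from GST-tagged yeast transcription factors, applied at about 100-200 nM, on universal all-10-mer Agilent arrays made double-stranded by primer extension. Fluorescent anti-GST marked bound protein, and scans were normalised with masliner.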
row,Sequence,PBM E-score
1,CGGAACCA,0.23
2,ATTGATGA,0.0891
3,CATCTTAC,0.0418
4,ACAACTAT,0.0919
5,CCCATGCA,-0.029
6,TCTATAAA,0.111
7,ATAGTCGA,0.215
8,CGGATATC,0.167
9,ACACTAGA,0.142
10,AGCATAGG,-0.145
11,AAACCGAG,-0.0261
12,ATGACACG,0.114
13,AGCGTCGC,0.098
14,AGGACGGA,-0.123
15,GCATAATA,0.249
16,AAGCAGGG,-0.0301
17,CCGGGCGA,-0.17
18,AGTGTAAT,0.0742
19,CACTAAAC,0.0896
20,AAACGGCG,0.17
21,ACAATTTG,-0.0159
22,AAACTGTA,0.105
23,GGTGGGGA,0.173
24,CTGTCCAC,-0.00922

row,Sequence,PBM E-score
1,AAATATAA,0.247
2,CCACGAGG,-0.103
3,ACTACAGC,-0.201
4,TCCGGAAA,0.252
5,CGCACCCG,0.168
6,TCGACGAA,0.12
7,GTTAGGAA,0.0362
8,GCCAGCAC,-0.0561
9,CAACTACC,-0.14
10,CGAGCGCA,0.198
11,TAGACGCA,-0.0612
12,ACTTAAAC,0.126
13,ATGCCCGC,-0.0876
14,CACATGAG,-0.186
15,CATGAAAG,-0.0263
16,CATACGGA,0.0805
17,CCGGGCGC,-0.07
18,AGCGAGGA,-0.0275
19,GCTGCAAC,0.124
20,GCGCAAAC,0.101
21,ATGTGTTC,0.0917
22,AGGGCAAA,0.0746
23,GGGCAGAA,0.123
24,GCAGAGGC,-0.185

row,Sequence,PBM E-score
1,AAATAACG,0.184
2,ATCGCCTG,-0.13
3,CGGGCGAG,0.0379
4,AGACGCAA,0.116
5,CTCGTAGC,0.0352
6,ATCTGTTC,-0.075
7,CACTTTAG,-0.106
8,ATTGAGAC,0.0904
9,GGATGTAA,0.0961
10,GGATTCTA,0.0766
11,ATCGCAGG,-0.0774
12,AGCAGATC,0.256
13,ATATTTGC,0.306
14,GAGCGTGC,0.0985
15,AGACTTGA,-0.0266
16,GCATGCGC,0.126
17,AGTACAAT,0.224
18,AACACGCA,0.0682
19,CGTCTCCC,-0.163
20,TGTTGGAA,0.192
21,CATGCCCC,-0.0844
22,GGCTCAAC,-0.143
23,AGCGGGTA,-0.0961
24,CCGAAATC,0.00772

row,Sequence,PBM E-score
1,CCCTTACG,-0.22
2,CGTCTTAC,-0.00873
3,TGTGCAAA,-0.0213
4,CATATCTA,0.142
5,AGTGTCGG,0.04
6,CCTGTACG,-0.107
7,CAATCGGA,0.259
8,CACGTCGG,0.00033
9,CACGCCAA,-0.0204
10,ACGTCAGT,0.0108
11,GACGTATA,-0.0828
12,AGTGGTTC,0.00281
13,TTACCAAA,0.115
14,GATGAGGC,-0.17
15,ATAAAAGC,0.102
16,CCGATCGC,0.0503
17,AGAGAATC,-0.0473
18,CGAACACA,0.232
19,TCATCGAA,0.0816
20,AGTATGAT,0.195
21,GGGAGATA,-0.0835
22,GGATTGCA,0.044

# Reprinted from the results shown (five entries):
row,Sequence,PBM E-score
3,TGTGCAAA,-0.0213
4,CATATCTA,0.142
5,AGTGTCGG,0.04
6,CCTGTACG,-0.107
7,CAATCGGA,0.259
